Measured values reported in ChEMBL document CHEMBL4316593 (Eur J Med Chem, 2019).
Further values from the same series stand in other lists.

Columns and labels:
Type in all cases: cell-based
Conditions in all cases: U-87MG ATCC
[1] = Inhibition of RTK/PI3K/AKT/mTOR signaling in human U87 cells assessed as up regulation of CLGN gene expression at cytotoxic IC50 measured after 48 hrs relative to control
[2] = Inhibition of RTK/PI3K/AKT/mTOR signaling in human U87 cells assessed as down regulation of CBFB gene expression at cytotoxic IC50 measured after 48 hrs relative to control
[3] = Inhibition of RTK/PI3K/AKT/mTOR signaling in human U87 cells assessed as up regulation of family with sequence similarity 171 member A1 gene expression at cytotoxic IC50 measured after 48 hrs relative to control
[4] = Inhibition of RTK/PI3K/AKT/mTOR signaling in human U87 cells assessed as up regulation of HR, lysine demethylase and nuclear receptor corepressor gene expression at cytotoxic IC50 measured after 48 hrs relative to control
[5] = Inhibition of RTK/PI3K/AKT/mTOR signaling in human U87 cells assessed as up regulation of nestin gene expression at cytotoxic IC50 measured after 48 hrs relative to control
[6] = Inhibition of RTK/PI3K/AKT/mTOR signaling in human U87 cells assessed as up regulation of isochorismatase domain containing 2 gene expression at cytotoxic IC50 measured after 48 hrs relative to control
[7] = Inhibition of RTK/PI3K/AKT/mTOR signaling in human U87 cells assessed as down regulation of USP1 gene expression at cytotoxic IC50 measured after 48 hrs relative to control
[8] = Inhibition of RTK/PI3K/AKT/mTOR signaling in human U87 cells assessed as up regulation of SLC50A1 gene expression at cytotoxic IC50 measured after 48 hrs relative to control
[9] = Inhibition of RTK/PI3K/AKT/mTOR signaling in human U87 cells assessed as up regulation of RPL29 gene expression at cytotoxic IC50 measured after 48 hrs relative to control
[10] = Inhibition of RTK/PI3K/AKT/mTOR signaling in human U87 cells assessed as down regulation of SYAP1 gene expression at cytotoxic IC50 measured after 48 hrs relative to control
[11] = Inhibition of RTK/PI3K/AKT/mTOR signaling in human U87 cells assessed as down regulation of DHX36 gene expression at cytotoxic IC50 measured after 48 hrs relative to control
[12] = Inhibition of RTK/PI3K/AKT/mTOR signaling in human U87 cells assessed as down regulation of PELI1 gene expression at cytotoxic IC50 measured after 48 hrs relative to control
[13] = Inhibition of RTK/PI3K/AKT/mTOR signaling in human U87 cells assessed as down regulation of TUBB6 gene expression at cytotoxic IC50 measured after 48 hrs relative to control
[14] = Inhibition of RTK/PI3K/AKT/mTOR signaling in human U87 cells assessed as up regulation of NACC2 gene expression at cytotoxic IC50 measured after 48 hrs relative to control
[15] = Inhibition of RTK/PI3K/AKT/mTOR signaling in human U87 cells assessed as down regulation of TMEM38B gene expression at cytotoxic IC50 measured after 48 hrs relative to control
[16] = Inhibition of RTK/PI3K/AKT/mTOR signaling in human U87 cells assessed as up regulation of SH3 domain binding protein 4 gene expression at cytotoxic IC50 measured after 48 hrs relative to control
[17] = Inhibition of RTK/PI3K/AKT/mTOR signaling in human U87 cells assessed as down regulation of HGS gene expression at cytotoxic IC50 measured after 48 hrs relative to control
[18] = Inhibition of RTK/PI3K/AKT/mTOR signaling in human U87 cells assessed as up regulation of basal cell adhesion molecule (Lutheran blood group) gene expression at cytotoxic IC50 measured after 48 hrs relative to control
[19] = Inhibition of RTK/PI3K/AKT/mTOR signaling in human U87 cells assessed as up regulation of NDUFS2 gene expression at cytotoxic IC50 measured after 48 hrs relative to control
[20] = Inhibition of RTK/PI3K/AKT/mTOR signaling in human U87 cells assessed as down regulation of RFC5 gene expression at cytotoxic IC50 measured after 48 hrs relative to control
[21] = Inhibition of RTK/PI3K/AKT/mTOR signaling in human U87 cells assessed as down regulation of HMGB2 gene expression at cytotoxic IC50 measured after 48 hrs relative to control
[22] = Inhibition of RTK/PI3K/AKT/mTOR signaling in human U87 cells assessed as up regulation of FK506 binding protein 2 gene expression at cytotoxic IC50 measured after 48 hrs relative to control
[23] = Inhibition of RTK/PI3K/AKT/mTOR signaling in human U87 cells assessed as down regulation of POLE3 gene expression at cytotoxic IC50 measured after 48 hrs relative to control
[24] = Inhibition of RTK/PI3K/AKT/mTOR signaling in human U87 cells assessed as up regulation of ADP ribosylation factor like GTPase 5A gene expression at cytotoxic IC50 measured after 48 hrs relative to control
[25] = Inhibition of RTK/PI3K/AKT/mTOR signaling in human U87 cells assessed as down regulation of NR4A2 gene expression at cytotoxic IC50 measured after 48 hrs relative to control
[26] = Inhibition of RTK/PI3K/AKT/mTOR signaling in human U87 cells assessed as up regulation of USP6NL gene expression at cytotoxic IC50 measured after 48 hrs relative to control
[27] = Inhibition of RTK/PI3K/AKT/mTOR signaling in human U87 cells assessed as down regulation of SEMA4F gene expression at cytotoxic IC50 measured after 48 hrs relative to control
[28] = Inhibition of RTK/PI3K/AKT/mTOR signaling in human U87 cells assessed as down regulation of TUBB4B gene expression at cytotoxic IC50 measured after 48 hrs relative to control
[29] = Inhibition of RTK/PI3K/AKT/mTOR signaling in human U87 cells assessed as up regulation of TSPAN5 gene expression at cytotoxic IC50 measured after 48 hrs relative to control
[30] = Inhibition of RTK/PI3K/AKT/mTOR signaling in human U87 cells assessed as up regulation of DIDO1 gene expression at cytotoxic IC50 measured after 48 hrs relative to control
[31] = Inhibition of RTK/PI3K/AKT/mTOR signaling in human U87 cells assessed as up regulation of nipsnap homolog 1 gene expression at cytotoxic IC50 measured after 48 hrs relative to control
[32] = Inhibition of RTK/PI3K/AKT/mTOR signaling in human U87 cells assessed as up regulation of cellular retinoic acid binding protein 2 gene expression at cytotoxic IC50 measured after 48 hrs relative to control

## CC(=O)C(=NNc1ccccc1C#N)C(C)=O
[1]
  log2FC: 1.61
[2]
  log2FC: -0.532
[3]
  log2FC: 1.22
[4]
  log2FC: 1.34
[5]
  log2FC: 1.01
[6]
  log2FC: 0.999
[7]
  log2FC: -0.602
[8]
  log2FC: 0.597
[9]
  log2FC: 0.53
[10]
  log2FC: -0.668
[11]
  log2FC: -0.767
[12]
  log2FC: -1.43
[13]
  log2FC: -0.73
[14]
  log2FC: 0.574
[15]
  log2FC: -1.16
[16]
  log2FC: 1.06
[17]
  log2FC: -0.609
[18]
  log2FC: 1.03
[19]
  log2FC: 0.575
[20]
  log2FC: -0.705
[21]
  log2FC: -1.28
[22]
  log2FC: 0.792
[23]
  log2FC: -0.794
[24]
  log2FC: 0.854
[25]
  log2FC: -1.73
[26]
  log2FC: 0.54
[27]
  log2FC: -1.43
[28]
  log2FC: -1.31
[29]
  log2FC: 0.584
[30]
  log2FC: 0.562
[31]
  log2FC: 0.647
[32]
  log2FC: 1.15
